The list does not hold the whole screen: it gathers tests that were run many times, whatever their T/C, doses with no T/C, and many T/C values between a quarter and a half above the control. Further doses and runs are listed elsewhere. T/C: endpoint of the treated group in % of that of the vehicle group. Schedule codes are those of the source, read here as Q, the interval in days (D) or hours (H), X, the number of doses. Some T/C values carry the count of animals alive at the toxicity check (mostly the fifth day); where none is given, no animal had died by that day. Some doses were run more than once; the values are given in rising order. Some entries give survivors of the animals treated and no T/C: the source files T/C as zero there, which appears to mark a toxic dose or a test without result, not a measured value. Counts of survivors are from the toxicity check (mostly the fifth day) where no day follows; animals may have died later.
System: BDF1 mice, colon carcinoma 38 sc, T/C %
Experiment: NCI In Vivo Anticancer Drug Screen. Data for tumor model Colon Carcinoma 38 (subcutaneous) in B6D2F1 (BDF1) mice
Conditions: T/C endpoint: median tumor weight (est.), higher T/C = larger tumour; for T/C: evaluated on day 20
Procedure, shortened: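 Compound antitumor activity was assessed in mice carrying transplantable tumors. Survival or tumor size was recorded, and each value is the treated-group measurement divided by that of the vehicle-treated control group.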

[1] = dose: 50.0 mg/kg/injection, schedule: Q07DX002 (ip), vehicle: saline with Tween-80

**Q.** Which survivor count (dose: 54.0 mg/kg/injection, schedule: Q07DX002 (ip), vehicle: distilled water + Tween-80) does the source give for `COc1cccc2c1C(=O)c1c(O)c3c(c(O)c1C2=O)C[C@@](O)(C(C)=O)C[C@@H]3OC1CC(N(Cc2ccccc2)Cc2ccccc2)C(O)C(C)O1` (stereo partly drawn) here?
**A.** 1 of 10 on day 20

**Q.** What about the survivor count (dose: 108.0 mg/kg/injection, schedule: Q07DX002 (ip), vehicle: distilled water + Tween-80) of the same compound?
**A.** 1 of 10 on day 20

**Q.** What about the survivor count (dose: 108.0 mg/kg/injection, schedule: Q07DX002 (ip), vehicle: saline with Tween-80) of the same compound?
**A.** 1 of 10 on day 20

**Q.** And the survivor count (dose: 216.0 mg/kg/injection, schedule: Q07DX002 (ip), vehicle: distilled water + Tween-80)?
**A.** 0 of 10 on day 20

**Q.** What about the survivor count (dose: 216.0 mg/kg/injection, schedule: Q07DX002 (ip), vehicle: saline with Tween-80) of the same compound?
**A.** 1 of 10 on day 20 and 3 of 10 on day 20

**Q.** How did the T/C (dose: 1.56 mg/kg/injection, schedule: Q07DX002 (ip), vehicle: saline) turn out when `C[CH2][Sn]([CH2]C)([O]S(C)(=O)=O)[O]S(C)(=O)=O` was run?
**A.** 129 % of control [9 of 10 alive on day 20]

**Q.** What about the survivor count (dose: 25.0 mg/kg/injection, schedule: Q07DX002 (ip), vehicle: saline) of the same compound?
**A.** 1 of 10 on day 20 and 6 of 10 on day 20

**Q.** What about the survivor count (dose: 50.0 mg/kg/injection, schedule: Q07DX002 (ip), vehicle: saline) of the same compound?
**A.** 0 of 10 on day 20

**Q.** How did the T/C (dose: 3.12 mg/kg/injection, schedule: Q07DX002 (ip), vehicle: saline) turn out when `CC1(C)N=C(N)N=C(N)N1c1ccc(F)c(C(F)(F)F)c1` was run?
**A.** 133 % of control

**Q.** What about the survivor count (dose: 6.25 mg/kg/injection, schedule: Q07DX003 (ip), vehicle: suspension in saline) of the same compound?
**A.** 6 of 10 on day 20

**Q.** And the survivor count (dose: 200.0 mg/kg/injection, schedule: Q07DX003 (ip), vehicle: suspension in saline)?
**A.** 0 of 10 on day 20

**Q.** For `CCC(=O)N(C)[C@@H](C)C(=O)O[C@H]1CC(=O)N(C)c2cc(cc(OC)c2Cl)C/C(C)=C/C=C[C@@H](OC)[C@@]2(O)C[C@H](OC(=O)N2)[C@@H](C)[C@@H]2O[C@@]12C`, which T/C (dose: 15.0 micrograms/kg/injection, schedule: Q07DX002 (ip), vehicle: saline + alcohol) is on record?
**A.** 141 % of control

**Q.** For `CC1(C)COCN1COC1CCCCC1`, which survivor count (dose: 400.0 mg/kg/injection, schedule: Q07DX002 (ip), vehicle: suspension in saline) is on record?
**A.** 0 of 10 on day 20

**Q.** What about the survivor count (dose: 800.0 mg/kg/injection, schedule: Q07DX002 (ip), vehicle: suspension in saline) of the same compound?
**A.** 0 of 10 on day 20

**Q.** How did the survivor count (dose: 400.0 mg/kg/injection, schedule: Q07DX002 (ip), vehicle: saline) turn out when `CN1CCN(c2ccc3nc(-c4ccc5nc(-c6ccc(O)cc6)[nH]c5c4)[nH]c3c2)CC1` was run?
**A.** 4 of 10 on day 20

**Q.** And the survivor count (dose: 800.0 mg/kg/injection, schedule: Q07DX002 (ip), vehicle: saline)?
**A.** 0 of 10 on day 20

**Q.** What does the source list for `C[CH2][Pb]([CH2]C)([CH2]C)[O]C(=O)COc1ccccc1`?
**A.** T/C (dose: 1.5 mg/kg/injection, schedule: Q07DX002 (ip), vehicle: Klucel (hydroxypropylcellulose) (HPC)): 135 % of control; survivor count (dose: 24.0 mg/kg/injection, schedule: Q07DX002 (ip), vehicle: Klucel (hydroxypropylcellulose) (HPC)): 5 of 8 on day 20

**Q.** What does the source list for `CS(=O)(=O)Nc1ccc(C(=O)CCN2CCCCCC2)cc1`?
**A.** survivor count (dose: 400.0 mg/kg/injection, schedule: Q07DX002 (ip), vehicle: saline with Tween-80): 0 of 10 on day 20; survivor count (dose: 800.0 mg/kg/injection, schedule: Q07DX002 (ip), vehicle: saline with Tween-80): 0 of 10 on day 20

**Q.** `O=C(O)Cc1cccc2c(=O)c(-c3ccccc3)c(-c3ccccc3)oc12` was tested. Which survivor count (dose: 400.0 mg/kg/injection, schedule: Q07DX002 (ip), vehicle: Klucel (hydroxypropylcellulose) (HPC)) did it give?
**A.** 3 of 10 on day 20 and 6 of 10 on day 20

**Q.** For `CC1OC(O[C@H]2C[C@](O)(C(C)O)Cc3c(O)c4c(c(O)c32)C(=O)c2c(O)cccc2C4=O)CC(NC=O)C1O` (stereo partly drawn), which survivor count (dose: 1.42 mg/kg/injection, schedule: Q07DX002 (ip), vehicle: distilled water + Tween-80) is on record?
**A.** 4 of 10 on day 20

**Q.** And the survivor count (dose: 1.9 mg/kg/injection, schedule: Q07DX002 (ip), vehicle: distilled water + Tween-80)?
**A.** 5 of 10 on day 20

**Q.** What about the survivor count (dose: 2.53 mg/kg/injection, schedule: Q07DX002 (ip), vehicle: distilled water + Tween-80) of the same compound?
**A.** 6 of 10 on day 20

**Q.** And the survivor count (dose: 3.38 mg/kg/injection, schedule: Q07DX002 (ip), vehicle: distilled water + Tween-80)?
**A.** 0 of 10 on day 20

**Q.** And the survivor count (dose: 4.5 mg/kg/injection, schedule: Q07DX002 (ip), vehicle: distilled water + Tween-80)?
**A.** 0 of 10 on day 20

**Q.** And the survivor count (dose: 6.0 mg/kg/injection, schedule: Q07DX002 (ip), vehicle: distilled water + Tween-80)?
**A.** 0 of 10 on day 20

**Q.** How did the T/C (dose: 10.0 mg/kg/injection, schedule: Q07DX002 (ip), vehicle: Klucel (hydroxypropylcellulose) (HPC)) turn out when `C(CC1CO1)C1CO1` (stereo not drawn) was run?
**A.** 133 % of control

**Q.** What about the T/C (dose: 20.0 mg/kg/injection, schedule: Q07DX002 (ip), vehicle: Klucel (hydroxypropylcellulose) (HPC)) of the same compound?
**A.** 132 [9 of 10 alive on day 20] and 135 % of control

**Q.** And the T/C (dose: 40.0 mg/kg/injection, schedule: Q07DX002 (ip), vehicle: Klucel (hydroxypropylcellulose) (HPC))?
**A.** 140 % of control

**Q.** And the T/C (dose: 80.0 mg/kg/injection, schedule: Q07DX002 (ip), vehicle: Klucel (hydroxypropylcellulose) (HPC))?
**A.** 131 % of control

**Q.** And the T/C (dose: 160.0 mg/kg/injection, schedule: Q07DX002 (ip), vehicle: Klucel (hydroxypropylcellulose) (HPC))?
**A.** 144 % of control

**Q.** For `CC(=O)Nc1ccc(S(=O)(=O)CO)cc1`, which T/C [1] is on record?
**A.** 133 % of control

**Q.** With `CC(=O)Oc1c[nH]c(=O)[nH]c1=O` as the compound, how does the T/C (dose: 50.0 mg/kg/injection, schedule: Q07DX002 (ip), vehicle: distilled water + Tween-80) read?
**A.** 132 % of control

**Q.** And the T/C (dose: 400.0 mg/kg/injection, schedule: Q07DX002 (ip), vehicle: distilled water + Tween-80)?
**A.** 133 % of control

**Q.** How did the survivor count (dose: 120.0 mg/kg/injection, schedule: Q07DX002 (ip), vehicle: saline) turn out when `NC1=NC(O)C=C1` (stereo not drawn) was run?
**A.** 3 of 10 on day 20

**Q.** Which survivor count (dose: 3200.0 mg/kg/injection, schedule: Q07DX002 (ip), vehicle: Klucel (hydroxypropylcellulose) (HPC)) does the source give for `Cc1ccc(S(=O)(=O)OCOS(=O)(=O)c2ccc(C)cc2)cc1` here?
**A.** 0 of 10 on day 20

**Q.** How did the T/C (dose: 25.0 mg/kg/injection, schedule: Q07DX002 (ip), vehicle: saline with Tween-80) turn out when `c1cc(OCC2CO2)ccc1OCC1CO1` (stereo not drawn) was run?
**A.** 147 % of control

**Q.** What about the survivor count (dose: 800.0 mg/kg/injection, schedule: Q07DX002 (ip), vehicle: Klucel (hydroxypropylcellulose) (HPC)) of the same compound?
**A.** 0 of 10 on day 20

**Q.** `Nc1nc(N)c2c(ccc3c2ccn3Cc2cccc([N+](=O)[O-])c2)n1` was tested. Which survivor count [1] did it give?
**A.** 0 of 10 on day 20

**Q.** How did the survivor count (dose: 2.0 mg/kg/injection, schedule: Q07DX002 (ip), vehicle: saline + Tween-80 + alcohol) turn out when `CC(C)(O)/C=C/C(=O)[C@](C)(O)[C@H]1[C@H](O)C[C@@]2(C)[C@@H]3CC=C4[C@@H](C[C@H](O)C(=O)C4(C)C)[C@]3(C)C(=O)C[C@]12C` was run?
**A.** 4 of 10 on day 20

**Q.** What about the survivor count (dose: 4.0 mg/kg/injection, schedule: Q07DX002 (ip), vehicle: saline + Tween-80 + alcohol) of the same compound?
**A.** 1 of 10 on day 20

**Q.** With `O=C1NC(=O)/C(=C/C=C/c2ccccc2)S1` as the compound, how does the T/C (dose: 100.0 mg/kg/injection, schedule: Q07DX002 (ip), vehicle: saline with Tween-80) read?
**A.** 144 % of control

**Q.** With `COC1C(C)OC(OC2CC(C)(O)Cc3cc4c(c(O)c32)C(=O)c2c(O)cc3c(c2C4=O)OC2OC3(C)C(O)C(N(C)C)C2O)C(OC)C1(C)OC` (stereo not drawn) as the compound, how does the T/C (dose: 2.5 mg/kg/injection, schedule: Q07DX002 (ip), vehicle: other) read?
**A.** 131 % of control

**Q.** Which results are given for `C[CH2][Ge]1([CH2]C)[CH2]CC2(CCN(CCCN(C)C)C2)C[CH2]1`?
**A.** T/C (dose: 12.5 mg/kg/injection, schedule: Q07DX002 (ip), vehicle: saline): 128 % of control; survivor count (dose: 100.0 mg/kg/injection, schedule: Q07DX002 (ip), vehicle: saline): 5 of 10

**Q.** Which T/C (dose: 200.0 mg/kg/injection, schedule: Q07DX002 (ip), vehicle: distilled water + Tween-80 + alcohol) does the source give for `CCOc1cc2c(cc1C(C)c1ccc(OC)cc1)OCO2` (stereo not drawn) here?
**A.** 127 % of control

**Q.** What about the survivor count (dose: 800.0 mg/kg/injection, schedule: Q07DX002 (ip), vehicle: distilled water + Tween-80 + alcohol) of the same compound?
**A.** 1 of 10 on day 20

From PubChem BioAssay AID212 (DTP/NCI, 2004)
